Test results published in PubChem BioAssay AID2685 (National Center for Advancing Translational Sciences (NCATS), 2010).
This is one part of the list. Further columns of the screen follow, without active or inactive calls. The list favours compounds with an active or inconclusive main result. Words in brackets tell the shape of the fitted curve; partial curves, single points and poor fits give uncertain potencies.

Assay: qHTS Assay for Lipid Storage Modulators in Drosophila S3 Cells;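 on cell number change: cells counted by Cell Tracker Red CMTPX staining in the red channel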
Conditions: BODIPY lipid droplet fluorescence, 18-24 h; for cell number change: measured here: cell count max response, cells fed with added oleic acid
Method in brief: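 Drosophila S3 cells got compounds at several concentrations plus oleic acid (400 uM solution). Laser-scanning cytometry with 488 nm excitation read lipid droplets at 500-530 nm and cells at 575-640 nm. Percent activity was relative to 20 uM Triacsin C.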

[1] = measured here: cell number channel AC50, cells fed with added oleic acid
[2] = measured here: lipid fluorescence (Fed channel) AC50, cells fed with added oleic acid

SMILES | cell number change [%] | AC50 [1] | AC50 [2]
Cc1cc(OC(=O)Cc2cccc3ccccc23)c([N+](=O)[O-])c(=O)[nH]1 | -4.97 |  | 
C=CCNC(=S)NCc1cccnc1 | 46.4 | 0.0731 µM [falling, full curve, poor fit] | 4.11 µM [falling, single point]
COc1ccccc1N1CCN(C(=O)CCNC(=O)c2ccco2)CC1 | -3.16 |  | 0.164 µM [rising, full curve, poor fit]
O=C(c1cccn2c(=O)c3ccccc3nc12)N1CCN(Cc2ccc3c(c2)OCO3)CC1 | -5.03 | 6.51 µM [falling, single point] | 6.51 µM [falling, single point]
O=C(CSc1ccc2nnc(-c3ccccn3)n2n1)Nc1ccc2c(c1)OCO2 |  | 0.164 µM [rising, full curve, poor fit] | 0.206 µM [rising, full curve, poor fit]
CC(=O)c1sc2nc(-c3cccs3)cc(C(F)(F)F)c2c1N | -46.2 | 29.1 µM [falling, single point] | 
Nc1ccccc1Sc1cc(Cl)nnc1Cl |  |  | 6.51 µM [falling, single point]
O=C(Nc1ccccc1-c1nc2ccccc2s1)c1ccco1 | -25.4 |  | 2.31 µM [rising, single point]
Cc1ccc(C)c(N2CCN(S(=O)(=O)c3ccc4c(c3)CCN4C(=O)CCC(=O)O)CC2)c1 | -26.3 |  | 0.731 µM [falling, partial curve, poor fit]
CC(NC(=O)COC(=O)[C@@H]1CCCN1S(=O)(=O)c1ccccc1F)C12CC3CC(CC(C3)C1)C2 (stereo not given in full) | 25.3 | 1.64 µM [rising, single point] | 1.3 µM [rising, partial curve]
CCCCN1C(=O)/C(=C2\SC(N3CCCCC3)=NC2=O)c2ccccc21 | -56.4 | 16.4 µM [falling, partial curve] | 29.1 µM [falling, single point]
CCc1c(C(C)S(=O)(=O)c2ccc(C)cc2)[nH]c(=O)n1-c1ccc(OC(F)(F)F)cc1 (stereo not given) | -2.48 |  | 4.11 µM [rising, partial curve, poor fit]
Cn1c(=O)n(C)c2cc(NC(=O)CSc3nc4ccccc4c(=O)[nH]3)ccc21 | 1.9 |  | 6.51 µM [rising, single point]
C=C(C)CSc1nncn1/N=C/c1ccc(OC)cc1 | -43.3 | 29.1 µM [falling, single point] | 3.26 µM [rising, single point]
CC1(C)CC(=O)c2cc(C(=O)NNc3ccccc3)c(=O)n(-c3ccccc3)c2C1 | 30.1 | 4.61 µM [rising, full curve, poor fit] | 5.8 µM [rising, full curve]
COc1ccc(N2CCN(C(=O)C(=O)c3c(C)n(C)c4ccccc34)CC2)cc1 | 15.6 |  | 0.231 µM [falling, partial curve, poor fit]
CCOC(=O)n1c(=O)n(Cc2ccc(Cl)cc2Cl)c2ccccc21 |  |  | 29.1 µM [rising, single point]
O=C(NC(c1ccccc1)c1ccccc1)C1(c2cccs2)CCOCC1 | -3.69 |  | 0.291 µM [rising, partial curve, poor fit]
CCOC(=O)c1nn(-c2ccccc2F)c2nc(Nc3ccccc3)cc(=O)n12 | -36.7 | 18.4 µM [falling, single point] | 4.11 µM [rising, partial curve]

Look-ups from the entries so far:
COc1ccc(N2CCN(C(=O)C(=O)c3c(C)n(C)c4ccccc34)CC2)cc1 – AC50 [2]: 0.231 µM [falling, partial curve, poor fit]
O=C(c1cccn2c(=O)c3ccccc3nc12)N1CCN(Cc2ccc3c(c2)OCO3)CC1 – AC50 [1]: 6.51 µM [falling, single point]

Following part.

SMILES | cell number change [%] | AC50 [1] | AC50 [2]
O=C(NC1CC1)C1CC(=O)N(c2ccccc2)C1 (stereo not given) | 6.58 | 0.00461 µM [rising, full curve, poor fit] | 
CC(NC(=O)COC(=O)c1ccc(Cl)cc1O)c1ccc(F)cc1 (stereo not given) | -32.2 | 29.1 µM [falling, single point] | 
COc1ccc(C(C)=O)cc1CSc1ccc(S(=O)(=O)N2CCOCC2)cn1 | -22.1 |  | 0.366 µM [rising, partial curve, poor fit]
CCC(C)NC(=O)CSc1nc2ccsc2c(=O)n1NC(=O)c1ccccc1 (stereo not given) | 0.911 |  | 0.13 µM [falling, full curve, poor fit]
CN(C(=O)c1cccs1)c1ccccc1C(=O)O | -10.2 |  | 8.2 µM [falling, partial curve]
CCc1cccc(OCC(=O)Nc2cc(Cl)ccc2-n2cncn2)c1 | 3.16 |  | 18.4 µM [rising, partial curve, poor fit]
COc1ccc(S(=O)(=O)N2CCCC(C(F)(F)F)C2)cc1 (stereo not given) | -17.8 |  | 
CN(CC(=O)Nc1ccc(Cl)cc1)Cc1cc(=O)n2ccsc2n1 | -28.6 |  | 
CCCOc1ccc(CNC(=O)CCC(=O)n2ncc3cc(C)ccc32)cc1 | 4.03 |  | 
N#Cc1c(/N=C/C=C/c2ccccc2)sc2c1CCCC2 | 12.6 |  | 
CCCn1c(=O)c2c(c3ccccc31)OCC(=O)N2 | 24.8 | 2.59 µM [rising, full curve, poor fit] | 4.11 µM [rising, partial curve]
CC(NC(=O)COC(=O)c1ccccc1SCC(=O)N1CCCC1)c1ccccc1 (stereo not given) |  |  | 1.46 µM [falling, full curve, poor fit]
COc1ccc(NC(=O)c2cccc(OC(F)F)c2)cc1Cl | 38.7 | 0.184 µM [rising, full curve] | 
O=C(C[n+]1cccc(CNC(=O)c2ccc(OC(F)F)cc2)c1)Nc1ccc(F)cc1 | 90.1 | 29.1 µM [rising, single point] | 
O=C(N/N=C1\CCCc2ccccc21)c1ccc([N+](=O)[O-])cc1Cl | -36.9 | 0.0164 µM [falling, full curve, poor fit] | 
CN1CCc2c(sc(/N=C/c3cc(Cl)ccc3O)c2C#N)C1 | 13.1 |  | 
Cc1ccc(/C=C(\NC(=O)c2ccccc2)C(=O)OCc2ccccc2)cc1 |  | 2.31 µM [rising, single point] | 1.64 µM [rising, full curve]
C/C(=N\NC(=O)Cc1c(C)[nH][nH]c1=O)c1cccc(Br)c1 | 29.6 |  | 3.26 µM [rising, single point]
COc1cccc(NC(=O)CN2C(=O)NC(c3ccccc3)(c3ccccc3)C2=O)c1 | 4.78 |  | 29.1 µM [rising, single point]

SMILES | cell number change [%] | AC50 [1] | AC50 [2]
Fc1ccc(CSc2ncnc3ccccc23)cc1 | -28 | 0.731 µM [falling, full curve, poor fit] | 1.03 µM [falling, full curve]
COc1cc(NC(=O)C2CC2C)c(C(=O)O)cc1OC (stereo not given) | 17 |  | 
COc1ccc(/C=C/C(=O)OCC(=O)NC2CCCC2)cc1 | 34.8 | 0.164 µM [rising, partial curve, poor fit] | 9.2 µM [rising, partial curve, poor fit]
COc1ccccc1-c1nc(C#N)c(N2CCCCCC2)o1 | 5.58 |  | 3.26 µM [rising, partial curve]
Cc1ccc(S(=O)(=O)/N=C(/c2ccc(F)cc2)N2CCCCC2)cc1 | -11.6 |  | 4.11 µM [falling, single point]
Cc1cc(C)c(C)c(S(=O)(=O)N2CCC(C(=O)NCC(c3ccccc3)N(C)C)CC2)c1C (stereo not given) | -20.6 |  | 0.00517 µM [rising, full curve, poor fit]
CC(OC(=O)c1cccs1)C(=O)Nc1nc(-c2ccccc2)cs1 (stereo not given) | -12.5 |  | 20.6 µM [falling, single point]
COc1ccc(NC(=O)C2Cc3ccccc3CN2C(=O)c2ccccc2)cn1 (stereo not given) | 51.7 | 29.1 µM [rising, single point] | 
O=C(N/N=C/c1ccc(Cl)cc1)C1CC12CCC2 (stereo not given) | -35.8 | 16.4 µM [falling, single point] | 18.4 µM [falling, single point]
C=CCOc1ccc(/C=C/C(=O)OCC(=O)NC2CCCCCCC2)cc1 | 27.5 | 0.00517 µM [rising, full curve, poor fit] | 29.1 µM [rising, single point]
COc1ccc2oc(C(=O)OCC(=O)NCCc3ccc(S(N)(=O)=O)cc3)c(C)c2c1 | -41.3 | 18.4 µM [falling, partial curve] | 7.31 µM [falling, partial curve, poor fit]
COc1ccc(CN(CC(=O)NCc2ccc(F)cc2)C(=O)c2ccco2)cc1 | 24.4 |  | 
CC(C)CC(OC(=O)c1nsc(Cl)c1Cl)C(=O)NC1CCCC1 (stereo not given) | 14.3 | 6.51 µM [rising, single point] | 
COc1ccc(C(C(=O)NC2CCCC2)N(CC2CCCO2)C(=O)Cn2nnc(-c3ccc(C)o3)n2)cc1 (stereo not given) | -2.32 | 0.092 µM [rising, full curve, poor fit] | 
O=C(COc1ccccc1Cl)NCCCN1CCOCC1 | -27.1 |  | 20.6 µM [falling, single point]
Cc1c(C(=O)N2CCN(CCc3ccccn3)CC2)oc2ccc(Cl)cc12 | 40.9 | 0.092 µM [rising, full curve, poor fit] | 
Cc1cc(=O)oc2cc(NC(=O)Cc3ccccc3)ccc12 | 5.71 |  | 
COc1ccc(-c2csc(NC(=O)CSc3n[nH]c(N)n3)n2)cc1 | 33.6 | 7.31 µM [rising, single point] | 
COc1ccc(C(C)(C)C)cc1NC(=O)c1cccc(S(=O)(=O)N2CCN(C(C)=O)CC2)c1 | 11.5 |  | 0.116 µM [rising, full curve, poor fit]

Part of the list above, as tab-separated lines:
SMILES	cell number change [%]	AC50 [1]	AC50 [2]
C=CCNC(=S)NCc1cccnc1	46.4	0.0731 µM [falling, full curve, poor fit]	4.11 µM [falling, single point]
O=C(CSc1ccc2nnc(-c3ccccn3)n2n1)Nc1ccc2c(c1)OCO2		0.164 µM [rising, full curve, poor fit]	0.206 µM [rising, full curve, poor fit]
CC(=O)c1sc2nc(-c3cccs3)cc(C(F)(F)F)c2c1N	-46.2	29.1 µM [falling, single point]	
Cn1c(=O)n(C)c2cc(NC(=O)CSc3nc4ccccc4c(=O)[nH]3)ccc21	1.9		6.51 µM [rising, single point]
CC1(C)CC(=O)c2cc(C(=O)NNc3ccccc3)c(=O)n(-c3ccccc3)c2C1	30.1	4.61 µM [rising, full curve, poor fit]	5.8 µM [rising, full curve]
COc1ccc(N2CCN(C(=O)C(=O)c3c(C)n(C)c4ccccc34)CC2)cc1	15.6		0.231 µM [falling, partial curve, poor fit]
O=C(NC1CC1)C1CC(=O)N(c2ccccc2)C1 (stereo not given)	6.58	0.00461 µM [rising, full curve, poor fit]	
CN(CC(=O)Nc1ccc(Cl)cc1)Cc1cc(=O)n2ccsc2n1	-28.6		
COc1ccc(NC(=O)c2cccc(OC(F)F)c2)cc1Cl	38.7	0.184 µM [rising, full curve]	
CN1CCc2c(sc(/N=C/c3cc(Cl)ccc3O)c2C#N)C1	13.1		
C/C(=N\NC(=O)Cc1c(C)[nH][nH]c1=O)c1cccc(Br)c1	29.6		3.26 µM [rising, single point]
COc1cc(NC(=O)C2CC2C)c(C(=O)O)cc1OC (stereo not given)	17		
O=C(COc1ccccc1Cl)NCCCN1CCOCC1	-27.1		20.6 µM [falling, single point]
Cc1c(C(=O)N2CCN(CCc3ccccn3)CC2)oc2ccc(Cl)cc12	40.9	0.092 µM [rising, full curve, poor fit]	
Cc1cc(=O)oc2cc(NC(=O)Cc3ccccc3)ccc12	5.71		
COc1ccc(-c2csc(NC(=O)CSc3n[nH]c(N)n3)n2)cc1	33.6	7.31 µM [rising, single point]	
